Binding data for 1 substance are collected here from PMC12372902.

By UniProt entry, the sequences of proteins in these tests, tags left out.
UniProt O60218: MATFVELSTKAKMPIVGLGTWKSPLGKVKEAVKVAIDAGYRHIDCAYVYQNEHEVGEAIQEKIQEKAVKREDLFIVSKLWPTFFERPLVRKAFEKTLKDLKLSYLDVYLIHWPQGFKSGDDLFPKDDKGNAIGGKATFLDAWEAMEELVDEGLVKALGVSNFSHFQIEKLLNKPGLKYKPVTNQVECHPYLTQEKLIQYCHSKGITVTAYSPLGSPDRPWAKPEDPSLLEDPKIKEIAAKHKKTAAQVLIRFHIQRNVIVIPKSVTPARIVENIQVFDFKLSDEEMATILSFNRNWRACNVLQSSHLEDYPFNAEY
UniProt P67775: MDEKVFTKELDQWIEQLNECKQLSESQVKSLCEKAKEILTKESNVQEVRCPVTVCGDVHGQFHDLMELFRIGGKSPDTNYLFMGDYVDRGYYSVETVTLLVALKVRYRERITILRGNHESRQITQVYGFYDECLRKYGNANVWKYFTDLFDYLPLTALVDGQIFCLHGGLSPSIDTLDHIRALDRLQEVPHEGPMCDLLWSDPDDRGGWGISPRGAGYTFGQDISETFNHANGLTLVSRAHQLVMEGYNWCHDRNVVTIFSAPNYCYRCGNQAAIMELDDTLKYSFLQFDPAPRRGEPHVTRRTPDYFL

This assay has as its target Flag-tagged AKR1B10 (aldo-keto reductase family 1 member B10), wild type (human) (UniProt O60218). Kind of assay: affinity purification with mass spectrometry; anti-FLAG immunoprecipitation from lysates of HCT116-shAKR1B10 cells stably expressing Flag-AKR1B10 or Flag-vector; SDS-PAGE, in-gel trypsin digestion, LC-MS/MS.

Results are given in words; binding and its absence hold for the method and conditions named. Binding seen in cells or lysates may run through a third protein. Here binding means that the protein was enriched with, or labelled near, the bait; the list need not be complete.

“endogenous PPP2CA (catalytic subunit of PP2A) (from UniProt P67775 1-309) (enzyme)”: the binding entry was “binds”.
